Reference: PubChem BioAssay AID504764 (Drosophila RNAi Screening Center, 2011)
Test: 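Genes whose knock-down alters Notch-dependent transcription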 (primary screen). Cells: Drosophila Kc167 cells. Reagent: long dsRNA against Drosophila genes. Duration: about 5 days (4 days dsRNA, then 24 h after transfection). Challenge: transfection of constitutively active membrane-tethered Notch lacking the extracellular domain, read 24 h later. Measured: 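Firefly luciferase from an E(spl)m3 reporter with active Notch, plus control-promoter and uninduced reporter wells for normalisation; unnormalised counts, duplicate wells a and b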. Direction: induced reporter light, run 1, well a and induced reporter light, run 1, well b: higher = more light from the Notch target reporter with active Notch; control promoter light, run 1, well a and control promoter light, run 1, well b: higher = more light from the viral control promoter (cell number, transfection, viability); uninduced reporter light, run 1, well a: higher = more light from the Notch target reporter without active Notch. Rule for the call: 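Hit if the duplicate-averaged log2 ratio of induced to control-promoter light gives a plate-wise z beyond ±2, or induced to uninduced beyond ±1.8; weak-control or discordant-duplicate wells dropped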. Meaning of the calls: active = modifier hit (raised or lowered Notch signal); inactive = not a hit.
The deposit covers about 22,000 reagents; shown is an unselected part of those that have a named target and a result. Over the whole deposit, 403 (1.9%) are marked active. 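Unnormalised raw counts per well; ratio z-scores behind the hit calls and whether each hit raises or lowers signal are not deposited.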 Reagents against one gene are numbered here. A plus sign joins genes that one reagent is predicted to hit. Not stated in the record: the amount of reagent.

Target gene	dsRNA no.	induced reporter light, run 1, well a	induced reporter light, run 1, well b	control promoter light, run 1, well a	control promoter light, run 1, well b	uninduced reporter light, run 1, well a	call
CG7565	1	1.30e5	1.42e5	1.09e5	72430	13270	inactive
CG10898	1	1.42e5	1.22e5	84705	58970	9720	inactive
Icmt (Isoprenylcysteine carboxyl methyltransferase)	1	1.83e5	1.63e5	2.20e5	1.88e5	9170	inactive
NC2beta (Negative Cofactor 2beta)	1	2.16e5	2.38e5	1.89e5	1.94e5	16715	inactive
CG2964	1	1.41e5	1.20e5	1.37e5	1.22e5	10732	inactive
CG32633	1	1.14e5	1.22e5	1.04e5	1.02e5	8265	inactive
cyc (cycle)	1	1.49e5	1.30e5	1.22e5	1.25e5	9640	inactive
CG4793	1	1.05e5	1.34e5	1.31e5	1.44e5	9490	inactive
mei-9 (meiotic 9)	1	1.40e5	1.23e5	2.56e5	2.70e5	9138	inactive
CG14569	1	1.31e5	1.21e5	1.12e5	88565	8055	inactive
Nadsyn (NAD synthetase)	1	1.37e5	1.60e5	2.49e5	2.04e5	12460	inactive
Elovl7 (ELOVL fatty acid elongase 7)	1	72760	97585	71215	62280	5595	inactive
l(2)41Ab (lethal (2) 41Ab)	1	2.41e5	2.16e5	2.10e5	2.88e5	16790	active
EMC2B (ER membrane protein complex subunit 2B)	1	1.88e5	1.96e5	2.07e5	2.02e5	15905	inactive
CG15870	1	83425	94255	1.01e5	79985	8115	inactive
CG3226	1	2.77e5	2.31e5	3.42e5	3.37e5	17532	inactive
betaTub97EF (beta-Tubulin at 97EF)	1	70405	83490	1.58e5	1.30e5	9305	inactive
betaTub97EF (beta-Tubulin at 97EF)	2	1.77e5	1.48e5	2.26e5	1.88e5	15110	inactive
betaTub97EF (beta-Tubulin at 97EF)	3	1.12e5	1.09e5	1.52e5	1.70e5	10445	inactive
CG1409	1	1.69e5	1.83e5	3.84e5	2.99e5	11285	inactive
PIG-A (Phosphatidylinositol glycan anchor biosynthesis class A)	1	89865	1.02e5	1.88e5	1.98e5	8500	inactive
CG5986	1	1.42e5	1.57e5	2.18e5	2.23e5	13240	inactive
CG43999	1	2.42e5	2.48e5	2.84e5	2.32e5	21400	inactive
Vm32E (Vitelline membrane 32E)	1	97150	1.59e5	55815	73895	13815	inactive
CG8401	1	1.06e5	1.05e5	1.99e5	2.29e5	8720	inactive
TwdlS (TweedleS)	1	1.35e5	98935	1.56e5	1.53e5	12025	inactive
Npc2d (Niemann-Pick type C-2d)	1	78825	82795	78910	61230	4220	inactive
Tsp42Ek (Tetraspanin 42Ek)	1	2.63e5	2.36e5	2.57e5	2.14e5	16910	active
Doa (Darkener of apricot)	1	2.24e5	2.11e5	2.41e5	2.45e5	17620	inactive
Doa (Darkener of apricot)	2	1.76e5	1.57e5	1.78e5	1.83e5	13435	inactive
Doa (Darkener of apricot)	3	2.11e5	1.70e5	1.84e5	2.01e5	17570	inactive
Doa (Darkener of apricot)	4	1.68e5	1.76e5	2.03e5	2.39e5	15695	inactive
Doa (Darkener of apricot)	5	1.90e5	1.67e5	2.01e5	1.93e5	16935	inactive
Doa (Darkener of apricot)	6	1.94e5	2.37e5	3.04e5	2.99e5	15130	inactive
wal (walrus)	1	2.34e5	1.57e5	1.74e5	1.60e5	14438	inactive
bsf (bicoid stability factor)	1	2.24e5	2.52e5	2.01e5	2.54e5	21765	inactive
gsb (gooseberry)	1	2.05e5	2.25e5	1.59e5	1.80e5	13980	inactive
CG6865	1	2.01e5	2.22e5	3.74e5	2.88e5	12720	inactive
CG42586 + CG31775	1	19295	16040	10315	11015	3750	inactive
ND-B18 (NADH dehydrogenase (ubiquinone) B18 subunit)	1	1.02e5	93890	1.29e5	1.06e5	12995	inactive
TwdlB (TweedleB)	1	1.79e5	1.10e5	1.90e5	1.56e5	12880	inactive
Pss (Phosphatidylserine synthase)	1	1.23e5	1.06e5	93030	1.07e5	7015	inactive
Hmu (Hemomucin)	1	91720	1.19e5	1.97e5	1.54e5	8615	inactive
GCC185 (GRIP and coiled-coil domain containing 185 kDa)	1	60675	1.01e5	64480	53650	4950	inactive
CG7551	1	98635	72620	1.30e5	71035	6465	inactive
Cyp4e3 (Cytochrome P450 4e3)	1	1.36e5	1.53e5	77545	99295	16690	inactive
FoxP (Forkhead box P)	1	88485	77475	91470	64160	5575	inactive
Or67c (Odorant receptor 67c)	1	2.11e5	1.62e5	1.97e5	1.58e5	8335	inactive
CG14854	1	2.58e5	2.54e5	2.20e5	2.44e5	18265	inactive
Cyp9f2 (Cytochrome P450 9f2)	1	1.47e5	1.37e5	76865	81250	9670	inactive
MED4 (Mediator complex subunit 4)	1	72345	63720	39365	14625	7740	inactive
CG42266	1						active
cwo (clockwork orange)	1	91615	81260	81225	63090	5550	inactive
Spps (Sp1-like factor for pairing sensitive-silencing)	1	28250	22925	26975	23280	4655	inactive
hry (hairy)	1	24725	21475	13310	4665	7590	inactive
sing (singles bar)	1	71305	68675	98565	97925	11125	inactive
Rpn11 (Regulatory particle non-ATPase 11)	1	6230	4055	6630	6010	338	inactive
CG5641	1	1.16e5	1.20e5	1.01e5	71620	8275	inactive
CG6696	1	1.07e5	1.15e5	1.13e5	1.55e5	11955	inactive
CG31788	1	73375	83610	81040	59660	6700	inactive
5-HT7 (5-hydroxytryptamine (serotonin) receptor 7)	1	1.77e5	2.16e5	2.44e5	2.38e5	11720	inactive
Acp32CD (Accessory gland protein 32CD)	1	1.47e5	1.54e5	62100	1.03e5	20592	inactive
CG4839	1	2.59e5	2.91e5	2.49e5	2.15e5	22380	inactive
CG4839	2	1.14e5	1.21e5	88060	1.03e5	18100	inactive

Entries listed so far marked active, once more:
Target gene	dsRNA no.	induced reporter light, run 1, well a	induced reporter light, run 1, well b	control promoter light, run 1, well a	control promoter light, run 1, well b	uninduced reporter light, run 1, well a	call
l(2)41Ab (lethal (2) 41Ab)	1	2.41e5	2.16e5	2.10e5	2.88e5	16790	active
Tsp42Ek (Tetraspanin 42Ek)	1	2.63e5	2.36e5	2.57e5	2.14e5	16910	active
CG42266	1						active
